From patent US20110092490A1, “PYRIMIDINES, TRIAZINES AND THEIR USE AS PHARMACEUTICAL AGENTS” (THE UNIVERSITY OF NOTTINGHAM, priority 2008, published 2011)

Experiments:
[1] = test system: HCT-116; assay: 72-h MTT cytotoxicity assay; format: cell-based; settings: Homo sapiens, HCT116 cells
Procedure: (§1) MTT cytotoxicity assay. […] Human tumour cell lines were obtained from ECACC (European Collection of Cell Cultures). Standard 72-h MTT (thiazolyl blue; 3-[4,5-dimethylthiazol-2-yl]-2,5-diphenyltetrazolium bromide, 2 mg/ml in phosphate buffered saline) assays were performed. In short: cells were seeded into 96-well plates according to doubling time and incubated overnight at 37° C. Test compounds were made up in DMSO and a ⅓ dilution series prepared in 100 μL cell media, added to cells (in triplicates) and incubated for 72 hr at 37° C. MTT was made up as a stock of 5 mg/mL in cell media and filter-sterilised. Media was removed from cells followed by a wash with 200 μL PBS. MTT solution was then added at 20 μL per well and incubated in the dark at 37° C. for 4 h. MTT solution was removed and cells again washed with 200 μL PBS. MTT dye was solubilised with 200 μL per well of DMSO with agitation. Absorbance was read at 550 nm on an Anthos Labtec Systems plate reader.

[2] = test system: MCF-7; assay: 72-h MTT cytotoxicity assay; format: cell-based; settings: Homo sapiens, MCF7 cells
Procedure: as §1

Compound: CNc1nc(C)c(-c2nc(Nc3cccc([N+](=O)[O-])c3)ncc2C#N)s1 [Example 1.7, 4-(4-methyl-2-(methylamino)thiazol-5-yl)-2-(3-nitrophenylamino)pyrimidine-5-carbonitrile]
- GI50 [1]: 50 nM
- GI50 [2]: 80 nM
